Columns and labels:
[1] = solution-phase peptide synthesis; EDC/HOOBt; HBTU/DIPEA; EDC/HOBt; conditions: whole synthesis, HCl salt (5HCl)
[2] = general procedure: solution-phase peptide synthesis; EDC/HOOBt; HBTU/DIPEA; EDC/HOBt

In the case of “5HCl.H-Ile-Leu-Arg-Trp-Pro-Trp-Trp-Pro-Trp-Arg-Arg-Lys-NH2”, the “final purity (method not given)” value [1] was “above 98%”.

“Z-Arg-Trp-Pro-Trp-Trp-Pro-Trp-Arg-Arg-Lys(Boc)-NH2.3TPB” showed a step yield ([2]; coupling step, based on NMR content, 3TPB salt) of 87%.

For “2HCl.H-Trp-Trp-Pro-Trp-Arg-Arg-Lys(Boc)-NH2”, the step yield ([2]; late stage modification step, based on titration, 2HCl salt) was 82%.

Work on “Z-Trp-Trp-Pro-Trp-Arg-Arg-Lys(Boc)-NH2.2TPB” yielded a step yield ([2]; coupling step, based on NMR content, 2TPB salt) of 98%.

With “3HCl.Boc-Ile-Leu-Arg-Trp-Pro-Trp-Trp-Pro-Trp-Arg-Arg-Lys(Boc)-NH2” the step yield ([2]; coupling step, based on NMR content, 3HCl salt) was 88%.

Substance “3HCl.H-Arg-Trp-Pro-Trp-Trp-Pro-Trp-Arg-Arg-Lys(Boc)-NH2” has a step yield ([2]; late stage modification step, based on NMR content measurement, 3HCl salt) of 93%.

Z-Trp-Arg-Arg-Lys(Boc)-NH2.2TPB showed a step yield ([2]; coupling step, based on titration content, 2TPB salt) of 83%.

2HCl.H-Trp-Arg-Arg-Lys(Boc)-NH2 showed a step yield ([2]; late stage modification step, based on the titration, 2HCl salt) of 95%.
